The other results are listed elsewhere or left out.
Legend:
Test in all cases: log2 fold change, soluble protein after heating vs DMSO (PISA); higher = thermal stabilisation; K562 cells, 10 uM, 30 min; active = over 0.2 and 3.5 SD of the protein, either way, in both replicates (recomputed)
[1] = compound: COC1=CC=C(C=C1)CN2C=CC3=C2C=C(C=C3)C(=O)NO
Summary of the method: (§1)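 Soluble protein was defined as the supernatant after 21,000xg for 90 min. It came from K562 cells at 2×10^6 cells/mL given 10 μM compound for 30 min, heated in aliquots for 3 min across 48°C-58°C, pooled, and extracted in PBS with 0.5% NP-40 at 4°C, and was quantified by TMTpro 16plex LC-MS/MS with equalised channel sums. Thermal stability against control samples, from duplicates, is reported as log2 fold change.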

By UniProt entry, the sequences of proteins in these tests, tags left out. Where a name states a change or a piece, a line headed by the entry shows the natural chain unless it says otherwise.
UniProt Q9H6T3, whole entry, looked up: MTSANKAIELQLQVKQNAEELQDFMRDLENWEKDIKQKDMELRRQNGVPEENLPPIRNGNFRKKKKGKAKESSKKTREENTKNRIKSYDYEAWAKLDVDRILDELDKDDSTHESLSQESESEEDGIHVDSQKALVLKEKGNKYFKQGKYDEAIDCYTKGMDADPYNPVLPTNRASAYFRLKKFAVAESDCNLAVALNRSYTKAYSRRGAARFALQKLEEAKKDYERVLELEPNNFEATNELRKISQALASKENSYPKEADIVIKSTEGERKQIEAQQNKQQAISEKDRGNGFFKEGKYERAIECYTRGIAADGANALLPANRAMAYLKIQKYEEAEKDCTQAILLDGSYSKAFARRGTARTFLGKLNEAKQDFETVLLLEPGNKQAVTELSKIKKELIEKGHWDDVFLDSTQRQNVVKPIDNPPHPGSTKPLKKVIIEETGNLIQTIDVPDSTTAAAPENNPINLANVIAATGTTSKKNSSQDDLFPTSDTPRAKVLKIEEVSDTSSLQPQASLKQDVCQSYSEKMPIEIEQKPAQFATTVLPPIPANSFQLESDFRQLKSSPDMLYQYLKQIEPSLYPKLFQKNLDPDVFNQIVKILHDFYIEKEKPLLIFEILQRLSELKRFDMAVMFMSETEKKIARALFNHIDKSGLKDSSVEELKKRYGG
UniProt Q15287: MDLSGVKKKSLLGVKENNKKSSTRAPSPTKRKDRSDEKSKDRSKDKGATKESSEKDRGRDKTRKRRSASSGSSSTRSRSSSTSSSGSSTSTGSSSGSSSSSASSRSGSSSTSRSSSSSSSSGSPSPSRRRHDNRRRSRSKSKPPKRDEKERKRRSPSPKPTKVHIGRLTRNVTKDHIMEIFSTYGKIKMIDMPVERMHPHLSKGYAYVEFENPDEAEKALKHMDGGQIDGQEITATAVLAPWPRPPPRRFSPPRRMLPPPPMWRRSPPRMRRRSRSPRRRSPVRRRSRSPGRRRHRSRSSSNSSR
UniProt Q8IZ73: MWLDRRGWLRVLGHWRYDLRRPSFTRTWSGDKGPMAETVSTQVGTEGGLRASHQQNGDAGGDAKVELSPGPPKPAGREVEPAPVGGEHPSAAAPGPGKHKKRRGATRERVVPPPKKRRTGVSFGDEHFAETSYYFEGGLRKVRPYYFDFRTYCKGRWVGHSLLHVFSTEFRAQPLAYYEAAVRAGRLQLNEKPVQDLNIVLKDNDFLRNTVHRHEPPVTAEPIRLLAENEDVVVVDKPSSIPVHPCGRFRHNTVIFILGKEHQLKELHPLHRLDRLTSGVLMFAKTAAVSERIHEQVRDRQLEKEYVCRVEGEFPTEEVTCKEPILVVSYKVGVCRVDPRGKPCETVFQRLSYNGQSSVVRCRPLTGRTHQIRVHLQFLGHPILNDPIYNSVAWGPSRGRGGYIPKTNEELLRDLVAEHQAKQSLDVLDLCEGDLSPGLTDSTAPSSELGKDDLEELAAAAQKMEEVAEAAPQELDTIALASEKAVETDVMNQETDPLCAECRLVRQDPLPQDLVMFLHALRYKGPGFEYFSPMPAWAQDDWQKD
UniProt P27694, whole entry, looked up: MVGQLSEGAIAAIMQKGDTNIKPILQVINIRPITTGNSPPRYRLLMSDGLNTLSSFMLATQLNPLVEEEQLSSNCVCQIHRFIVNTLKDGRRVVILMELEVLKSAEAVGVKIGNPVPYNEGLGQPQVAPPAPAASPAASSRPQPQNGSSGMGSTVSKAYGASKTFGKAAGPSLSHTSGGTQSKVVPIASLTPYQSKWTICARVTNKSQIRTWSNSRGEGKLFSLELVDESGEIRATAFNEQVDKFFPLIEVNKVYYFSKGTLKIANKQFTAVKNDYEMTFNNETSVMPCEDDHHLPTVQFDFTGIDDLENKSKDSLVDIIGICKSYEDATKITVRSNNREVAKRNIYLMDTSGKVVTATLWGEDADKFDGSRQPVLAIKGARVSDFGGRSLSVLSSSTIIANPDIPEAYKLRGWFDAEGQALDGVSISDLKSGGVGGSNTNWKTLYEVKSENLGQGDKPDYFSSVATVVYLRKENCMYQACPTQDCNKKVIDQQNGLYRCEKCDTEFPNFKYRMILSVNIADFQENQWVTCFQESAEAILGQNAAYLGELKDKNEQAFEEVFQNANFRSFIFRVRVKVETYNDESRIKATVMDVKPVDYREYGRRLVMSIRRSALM
UniProt Q5VZM2, whole entry, looked up: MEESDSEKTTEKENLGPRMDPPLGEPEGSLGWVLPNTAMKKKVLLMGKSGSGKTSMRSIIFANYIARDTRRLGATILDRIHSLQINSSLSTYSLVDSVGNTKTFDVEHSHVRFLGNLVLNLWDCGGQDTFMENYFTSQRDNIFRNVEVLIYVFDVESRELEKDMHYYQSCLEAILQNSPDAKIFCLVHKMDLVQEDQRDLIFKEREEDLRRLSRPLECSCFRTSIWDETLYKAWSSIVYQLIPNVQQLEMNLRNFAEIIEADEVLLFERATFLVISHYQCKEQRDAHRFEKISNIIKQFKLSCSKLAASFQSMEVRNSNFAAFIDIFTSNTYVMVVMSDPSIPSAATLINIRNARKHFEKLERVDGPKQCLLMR
UniProt Q15418, whole entry, looked up: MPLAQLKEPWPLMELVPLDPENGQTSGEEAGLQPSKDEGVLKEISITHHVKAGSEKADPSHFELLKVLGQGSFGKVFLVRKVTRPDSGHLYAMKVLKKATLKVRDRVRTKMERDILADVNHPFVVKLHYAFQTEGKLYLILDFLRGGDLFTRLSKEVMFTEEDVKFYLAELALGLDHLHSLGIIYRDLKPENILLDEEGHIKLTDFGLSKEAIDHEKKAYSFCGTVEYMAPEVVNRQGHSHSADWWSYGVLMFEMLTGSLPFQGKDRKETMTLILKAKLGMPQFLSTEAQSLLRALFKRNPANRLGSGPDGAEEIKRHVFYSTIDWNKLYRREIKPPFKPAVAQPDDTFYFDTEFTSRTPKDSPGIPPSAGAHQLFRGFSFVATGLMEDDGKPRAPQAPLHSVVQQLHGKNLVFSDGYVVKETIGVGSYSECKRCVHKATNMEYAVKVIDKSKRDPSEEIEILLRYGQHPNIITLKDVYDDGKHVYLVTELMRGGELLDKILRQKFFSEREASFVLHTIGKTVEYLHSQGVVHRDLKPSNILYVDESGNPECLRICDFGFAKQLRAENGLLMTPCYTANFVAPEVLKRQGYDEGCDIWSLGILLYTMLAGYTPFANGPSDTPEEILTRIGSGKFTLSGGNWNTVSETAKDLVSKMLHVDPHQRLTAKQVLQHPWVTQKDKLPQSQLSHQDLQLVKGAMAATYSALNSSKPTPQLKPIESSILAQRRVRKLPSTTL
UniProt Q8N122, whole entry, looked up: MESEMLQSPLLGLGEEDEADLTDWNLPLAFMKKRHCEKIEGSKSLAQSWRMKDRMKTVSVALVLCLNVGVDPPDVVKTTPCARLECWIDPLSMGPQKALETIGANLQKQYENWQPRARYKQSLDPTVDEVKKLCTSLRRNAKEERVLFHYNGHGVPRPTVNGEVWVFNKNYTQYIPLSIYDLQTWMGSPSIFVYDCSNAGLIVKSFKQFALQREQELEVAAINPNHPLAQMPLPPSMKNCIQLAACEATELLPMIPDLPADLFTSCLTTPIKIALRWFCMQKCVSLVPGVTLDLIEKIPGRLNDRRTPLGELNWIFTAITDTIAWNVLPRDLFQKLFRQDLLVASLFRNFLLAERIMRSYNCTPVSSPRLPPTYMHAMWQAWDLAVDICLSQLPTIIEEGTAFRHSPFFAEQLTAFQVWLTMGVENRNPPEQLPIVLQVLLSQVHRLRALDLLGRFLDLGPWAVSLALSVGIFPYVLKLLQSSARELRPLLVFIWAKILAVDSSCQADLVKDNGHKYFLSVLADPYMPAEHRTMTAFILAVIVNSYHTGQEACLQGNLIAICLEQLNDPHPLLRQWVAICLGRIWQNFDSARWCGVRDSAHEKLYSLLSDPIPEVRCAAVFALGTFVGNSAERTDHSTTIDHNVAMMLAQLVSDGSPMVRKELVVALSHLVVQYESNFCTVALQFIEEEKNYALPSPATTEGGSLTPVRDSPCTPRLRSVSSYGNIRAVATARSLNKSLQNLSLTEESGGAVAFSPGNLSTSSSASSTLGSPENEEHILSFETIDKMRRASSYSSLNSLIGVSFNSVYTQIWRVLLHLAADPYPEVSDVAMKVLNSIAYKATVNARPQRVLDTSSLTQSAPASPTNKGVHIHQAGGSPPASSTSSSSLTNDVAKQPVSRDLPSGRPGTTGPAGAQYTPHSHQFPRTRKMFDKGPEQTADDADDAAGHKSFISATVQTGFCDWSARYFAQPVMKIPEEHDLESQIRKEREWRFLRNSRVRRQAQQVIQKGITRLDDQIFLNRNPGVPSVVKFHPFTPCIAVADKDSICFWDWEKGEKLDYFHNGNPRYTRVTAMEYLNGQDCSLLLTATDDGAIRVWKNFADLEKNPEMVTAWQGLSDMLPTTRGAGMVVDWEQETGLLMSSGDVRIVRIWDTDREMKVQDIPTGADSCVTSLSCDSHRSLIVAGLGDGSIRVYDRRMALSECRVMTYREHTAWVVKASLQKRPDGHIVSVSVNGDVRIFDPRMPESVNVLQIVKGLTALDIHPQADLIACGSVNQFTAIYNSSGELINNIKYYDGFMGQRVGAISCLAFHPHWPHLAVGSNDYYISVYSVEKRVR
UniProt P49247: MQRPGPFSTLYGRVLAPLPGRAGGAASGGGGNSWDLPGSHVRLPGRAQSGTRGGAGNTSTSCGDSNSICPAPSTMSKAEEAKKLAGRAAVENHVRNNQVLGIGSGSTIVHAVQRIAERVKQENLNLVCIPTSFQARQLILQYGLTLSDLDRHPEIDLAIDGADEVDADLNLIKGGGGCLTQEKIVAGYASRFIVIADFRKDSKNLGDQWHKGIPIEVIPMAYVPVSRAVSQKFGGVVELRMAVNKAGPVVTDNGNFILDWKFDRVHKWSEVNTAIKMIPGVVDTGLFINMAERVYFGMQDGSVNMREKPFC
UniProt P05387, whole entry, looked up: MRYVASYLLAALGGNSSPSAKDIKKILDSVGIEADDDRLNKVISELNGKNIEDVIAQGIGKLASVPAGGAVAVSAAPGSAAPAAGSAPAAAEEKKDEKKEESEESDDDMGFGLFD
UniProt Q86UA6: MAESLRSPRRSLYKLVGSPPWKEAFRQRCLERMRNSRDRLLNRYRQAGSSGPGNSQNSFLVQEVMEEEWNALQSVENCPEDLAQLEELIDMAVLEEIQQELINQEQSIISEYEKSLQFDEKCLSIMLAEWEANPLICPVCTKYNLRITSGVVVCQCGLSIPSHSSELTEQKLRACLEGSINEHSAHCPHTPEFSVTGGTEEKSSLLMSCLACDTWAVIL
UniProt Q9H7B2: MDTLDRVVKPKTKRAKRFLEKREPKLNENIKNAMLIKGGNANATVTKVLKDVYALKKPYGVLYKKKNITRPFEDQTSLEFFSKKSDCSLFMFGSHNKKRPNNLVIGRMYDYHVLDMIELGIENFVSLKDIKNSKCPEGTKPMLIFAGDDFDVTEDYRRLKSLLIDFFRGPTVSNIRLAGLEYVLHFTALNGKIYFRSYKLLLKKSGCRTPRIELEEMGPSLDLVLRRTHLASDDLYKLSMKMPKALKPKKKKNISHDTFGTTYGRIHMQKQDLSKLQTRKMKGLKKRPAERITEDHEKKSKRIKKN
UniProt Q9NYV6: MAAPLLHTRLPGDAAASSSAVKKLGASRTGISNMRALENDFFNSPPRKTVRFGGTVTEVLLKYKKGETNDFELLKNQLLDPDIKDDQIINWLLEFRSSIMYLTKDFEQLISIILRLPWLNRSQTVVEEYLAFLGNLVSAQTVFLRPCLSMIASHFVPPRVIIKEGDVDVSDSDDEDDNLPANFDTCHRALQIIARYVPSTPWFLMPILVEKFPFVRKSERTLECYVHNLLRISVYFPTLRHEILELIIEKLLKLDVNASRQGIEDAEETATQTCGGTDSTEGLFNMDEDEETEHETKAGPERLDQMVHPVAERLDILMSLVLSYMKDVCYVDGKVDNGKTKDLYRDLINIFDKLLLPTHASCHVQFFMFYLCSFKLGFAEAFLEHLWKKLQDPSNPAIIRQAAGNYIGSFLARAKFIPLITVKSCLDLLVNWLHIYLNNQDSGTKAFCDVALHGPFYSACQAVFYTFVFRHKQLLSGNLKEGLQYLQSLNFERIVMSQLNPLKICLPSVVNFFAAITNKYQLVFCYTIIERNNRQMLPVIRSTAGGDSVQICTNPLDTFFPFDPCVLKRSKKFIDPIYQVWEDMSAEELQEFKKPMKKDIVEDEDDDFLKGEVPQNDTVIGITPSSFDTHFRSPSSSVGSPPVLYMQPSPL
UniProt Q9H4P4: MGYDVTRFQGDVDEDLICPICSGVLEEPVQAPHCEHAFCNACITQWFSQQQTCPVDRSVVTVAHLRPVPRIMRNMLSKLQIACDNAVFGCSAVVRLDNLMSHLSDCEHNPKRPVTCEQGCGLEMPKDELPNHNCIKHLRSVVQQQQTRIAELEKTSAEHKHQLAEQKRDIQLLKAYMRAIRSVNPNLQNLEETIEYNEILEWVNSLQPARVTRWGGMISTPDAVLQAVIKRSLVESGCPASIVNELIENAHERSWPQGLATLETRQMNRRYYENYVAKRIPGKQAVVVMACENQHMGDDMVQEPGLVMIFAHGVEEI

[2] = compound: CON(C)C(=O)N1N=C(c2cc(F)ccc2F)S[C@@]1(CCCN)c1ccccc1 [filanesib]
Summary of the method: as §1

[3] = compound: CO[C@H]1C[C@@H]2CC[C@@H](C)[C@@](O)(O2)C(=O)C(=O)N2CCCC[C@H]2C(=O)O[C@H]([C@H](C)C[C@@H]2CC[C@H](n3cnnn3)[C@H](OC)C2)CC(=O)[C@H](C)/C=C(\C)[C@@H](O)[C@@H](OC)C(=O)[C@H](C)C[C@H](C)/C=C/C=C/C=C/1C [zotarolimus]
Summary of the method: as §1

[4] = compound: COc1cc(C(=O)O)ccc1NC(=O)[C@@H]1N[C@@H](CC(C)(C)C)[C@](C#N)(c2ccc(Cl)cc2F)[C@H]1c1cccc(Cl)c1F [idasanutlin]
Summary of the method: as §1

[5] = compound: COc1cc(Nc2ncc3c(n2)-c2ccc(Cl)cc2C(c2c(F)cccc2OC)=NC3)ccc1C(=O)O [alisertib]
Summary of the method: as §1

[6] = compound: COc1cc2nc(-c3cc(F)ccc3O)nc(N[C@@H]3CNC[C@H]3C(C)(C)O)c2cc1OC
Summary of the method: as §1

[7] = compound: COc1cc2ncnc(Nc3ccc(F)c(Cl)c3)c2cc1OCCCN1CCOCC1 [gefitinib]
Summary of the method: as §1

[8] = compound: COc1cccc2cc(-c3nc([C@H]4CC[C@H](C(=O)O)CC4)n4ncnc(N)c34)[nH]c12
Summary of the method: as §1

[9] = compound: CS(=O)(=O)CCNCc1ccc(-c2ccc3ncnc(Nc4ccc(OCc5cccc(F)c5)c(Cl)c4)c3c2)o1 [lapatinib]
Summary of the method: as §1

[10] = compound: CS(=O)(=O)N1CCN(Cc2cc3nc(-c4cccc5[nH]ncc45)nc(N4CCOCC4)c3s2)CC1 [pictilisib]
Summary of the method: as §1

Measured: log2 fold change

RPL3 (UniProt P39023)
inactive: [1] -0.131 | [2] 0.788 | [3] 0.01 | [4] 0.337 | [5] -0.185 | [6] -0.141 | [7] -0.065 | [8] -0.48 | [9] 0.344 | [10] -0.277

RPL18A (UniProt Q02543)
inactive: [1] -0.161 | [2] 0.77 | [3] 0.038 | [4] 0.385 | [5] -0.183 | [6] -0.159 | [7] -0.076 | [8] -0.48 | [9] 0.434 | [10] -0.215

RPL26L1 (UniProt Q9UNX3)
inactive: [1] -0.16 | [2] 0.45 | [3] 0.068 | [4] 0.206 | [5] -0.21 | [6] -0.051 | [7] -0.092 | [8] -0.405 | [9] 0.175 | [10] -0.08

RPAP3 (UniProt Q9H6T3)
inactive: [1] 0.017 | [2] 0.032 | [3] -0.007 | [4] 0.004 | [5] -0.063 | [6] 0.059 | [7] -0.041 | [8] -0.105 | [9] 0.022 | [10] 0.017

ROR2 (UniProt Q01974)
inactive: [1] -0.172 | [2] -0.017 | [3] 0.082 | [4] 0 | [5] -0.013 | [6] 0.022 | [7] 0.009 | [8] 0.012 | [9] 0.021 | [10] -0.079

RPRD1B (UniProt Q9NQG5)
inactive: [1] 0.014 | [2] 0.022 | [3] -0.018 | [4] -0.031 | [5] -0.011 | [6] 0.106 | [7] 0.037 | [8] 0.061 | [9] -0.004 | [10] 0.019

RPLP0 (UniProt P05388)
inactive: [1] -0.097 | [2] 0.614 | [3] 0.002 | [4] 0.27 | [5] -0.168 | [6] -0.194 | [7] -0.074 | [8] -0.382 | [9] 0.364 | [10] -0.148

RNPS1 (UniProt Q15287)
inactive: [1] 0.062 | [2] 0.13 | [3] -0.014 | [4] 0.274 | [5] 0.024 | [6] -0.073 | [7] 0.04 | [8] -0.005 | [9] 0.075 | [10] -0.001

RPL10 (UniProt P27635)
inactive: [1] -0.098 | [2] 0.526 | [3] 0.024 | [4] 0.234 | [5] -0.191 | [6] -0.143 | [7] -0.045 | [8] -0.478 | [9] 0.251 | [10] -0.272

RPUSD2 (UniProt Q8IZ73)
inactive: [1] 0.019 | [2] -0.019 | [3] 0.023 | [4] 0.008 | [5] -0.161 | [6] 0.043 | [7] 0.017 | [8] 0.008 | [9] 0.009 | [10] -0.005

RPA1 (UniProt P27694)
inactive: [1] 0.053 | [2] -0.006 | [3] 0.018 | [4] -0.042 | [5] 0.027 | [6] 0.049 | [7] -0.001 | [8] -0.133 | [9] 0.006 | [10] -0.088

RRAGB (UniProt Q5VZM2)
inactive: [1] -0.018 | [2] -0.059 | [3] -0.086 | [4] -0.026 | [5] -0.054 | [6] -0.078 | [7] -0.003 | [8] 0.053 | [9] 0.042 | [10] 0.052

RPS6KA1 isoform 2 (UniProt Q15418)
inactive: [1] 0.087 | [2] -0.022 | [3] 0.025 | [4] -0.016 | [5] -0.01 | [6] -0.202 | [7] -0.062 | [8] 0 | [9] 0.013 | [10] -0.053

RPL4 (UniProt P36578)
inactive: [1] -0.085 | [2] 0.791 | [3] 0.016 | [4] 0.376 | [5] -0.201 | [6] -0.201 | [7] -0.091 | [8] -0.427 | [9] 0.431 | [10] -0.246

RPL21 (UniProt P46778)
inactive: [1] -0.147 | [2] 0.758 | [3] -0.016 | [4] 0.331 | [5] -0.178 | [6] -0.197 | [7] -0.073 | [8] -0.395 | [9] 0.304 | [10] -0.192

RNPEP (UniProt Q9H4A4)
inactive: [1] 0.008 | [2] -0.083 | [3] 0.044 | [4] -0.02 | [5] -0.018 | [6] -0.009 | [7] -0.023 | [8] 0 | [9] 0.043 | [10] 0.008

RPTOR (UniProt Q8N122)
inactive: [1] 0.042 | [2] -0.077 | [3] -0.194 | [4] -0.066 | [5] -0.054 | [6] -0.056 | [7] 0.007 | [8] -0.072 | [9] 0.028 | [10] -0.022

RPIA (UniProt P49247)
inactive: [1] -0.017 | [2] -0.032 | [3] -0.024 | [4] -0.019 | [5] -0.036 | [6] 0.006 | [7] 0.012 | [8] 0.091 | [9] 0.007 | [10] 0.051

RPLP2 (UniProt P05387)
inactive: [1] -0.099 | [2] 0.606 | [3] 0.138 | [4] 0.272 | [5] -0.107 | [6] -0.256 | [7] -0.095 | [8] -0.315 | [9] 0.256 | [10] -0.159

RPAIN isoform 8 (UniProt Q86UA6)
inactive: [1] -0.055 | [2] 0.006 | [3] 0.028 | [4] 0.109 | [6] -0.061 | [9] -0.063

RPL22 (UniProt P35268)
inactive: [1] -0.067 | [2] 0.256 | [3] 0.1 | [4] 0.16 | [5] -0.037 | [6] -0.031 | [7] -0.065 | [8] -0.156 | [9] 0.047 | [10] -0.039

RPF2 (UniProt Q9H7B2)
inactive: [10] -0.01

RRN3 (UniProt Q9NYV6)
inactive: [1] 0.181 | [6] 0.202 | [9] 0.191 | [10] -0.146

RNF41 (UniProt Q9H4P4)
inactive: [4] -0.031

Two consecutive entries out of the list so far:
RPL22 (UniProt P35268)
inactive: [1] -0.067 | [2] 0.256 | [3] 0.1 | [4] 0.16 | [5] -0.037 | [6] -0.031 | [7] -0.065 | [8] -0.156 | [9] 0.047 | [10] -0.039

RPF2 (UniProt Q9H7B2)
inactive: [10] -0.01
